In the supplement of paper PMC6411743:
± gives the standard deviation of the averaged measurements. The entries are a selection whose mix differs from that of the whole data set.

Protein sequences, listed by entry. Tags and fused reporters are not part of them. Lines headed by an entry give the natural chain unless they say otherwise; changes in a name come on top.
UniProt P06400: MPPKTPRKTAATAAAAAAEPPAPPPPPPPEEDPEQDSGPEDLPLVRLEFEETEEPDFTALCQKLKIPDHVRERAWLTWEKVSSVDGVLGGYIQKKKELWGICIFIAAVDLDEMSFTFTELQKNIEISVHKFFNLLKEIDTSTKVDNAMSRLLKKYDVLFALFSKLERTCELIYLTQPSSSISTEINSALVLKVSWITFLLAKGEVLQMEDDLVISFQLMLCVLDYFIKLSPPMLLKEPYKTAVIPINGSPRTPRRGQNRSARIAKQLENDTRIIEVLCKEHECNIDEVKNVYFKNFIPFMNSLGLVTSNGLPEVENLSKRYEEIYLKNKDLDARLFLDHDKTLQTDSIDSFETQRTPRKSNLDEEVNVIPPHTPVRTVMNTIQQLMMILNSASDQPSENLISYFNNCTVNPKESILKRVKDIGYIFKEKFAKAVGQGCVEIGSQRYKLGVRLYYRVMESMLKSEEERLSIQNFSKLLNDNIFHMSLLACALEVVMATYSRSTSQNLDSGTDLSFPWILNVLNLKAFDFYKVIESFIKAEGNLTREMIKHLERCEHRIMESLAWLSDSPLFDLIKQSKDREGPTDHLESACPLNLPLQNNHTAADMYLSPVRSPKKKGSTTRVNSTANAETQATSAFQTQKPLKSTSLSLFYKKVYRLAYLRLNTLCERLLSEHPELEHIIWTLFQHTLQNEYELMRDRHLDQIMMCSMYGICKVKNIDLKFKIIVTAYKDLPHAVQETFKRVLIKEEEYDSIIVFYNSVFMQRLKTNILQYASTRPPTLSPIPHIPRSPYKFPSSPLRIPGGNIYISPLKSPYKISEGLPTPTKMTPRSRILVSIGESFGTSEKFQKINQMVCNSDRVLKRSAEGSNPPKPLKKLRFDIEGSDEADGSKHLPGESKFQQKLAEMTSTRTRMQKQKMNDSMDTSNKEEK
UniProt P06753, whole entry: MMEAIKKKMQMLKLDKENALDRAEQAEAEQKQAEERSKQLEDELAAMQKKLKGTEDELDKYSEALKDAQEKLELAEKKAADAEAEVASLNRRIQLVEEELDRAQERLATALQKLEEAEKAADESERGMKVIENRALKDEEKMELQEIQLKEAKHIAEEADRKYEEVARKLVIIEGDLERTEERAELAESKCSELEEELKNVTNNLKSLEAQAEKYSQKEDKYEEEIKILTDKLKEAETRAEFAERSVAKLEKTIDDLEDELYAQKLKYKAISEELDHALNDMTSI
UniProt P14151: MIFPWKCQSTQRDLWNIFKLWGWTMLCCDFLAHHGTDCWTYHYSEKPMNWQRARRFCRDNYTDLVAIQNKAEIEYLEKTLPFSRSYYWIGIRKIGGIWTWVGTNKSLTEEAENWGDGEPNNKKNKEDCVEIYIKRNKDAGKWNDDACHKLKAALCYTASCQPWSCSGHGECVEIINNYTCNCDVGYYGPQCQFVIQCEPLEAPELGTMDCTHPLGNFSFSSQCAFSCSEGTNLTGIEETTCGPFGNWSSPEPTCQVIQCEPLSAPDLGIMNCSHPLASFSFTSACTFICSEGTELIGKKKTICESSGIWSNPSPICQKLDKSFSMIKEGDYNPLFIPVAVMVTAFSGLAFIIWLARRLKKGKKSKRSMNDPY
UniProt P16402, whole entry: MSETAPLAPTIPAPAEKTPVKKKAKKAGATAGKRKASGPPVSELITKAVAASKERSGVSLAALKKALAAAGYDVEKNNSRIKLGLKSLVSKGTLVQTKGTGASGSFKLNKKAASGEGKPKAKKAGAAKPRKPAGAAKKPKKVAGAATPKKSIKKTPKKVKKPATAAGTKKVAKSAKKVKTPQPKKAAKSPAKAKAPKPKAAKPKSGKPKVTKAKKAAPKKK
UniProt P13984, whole entry: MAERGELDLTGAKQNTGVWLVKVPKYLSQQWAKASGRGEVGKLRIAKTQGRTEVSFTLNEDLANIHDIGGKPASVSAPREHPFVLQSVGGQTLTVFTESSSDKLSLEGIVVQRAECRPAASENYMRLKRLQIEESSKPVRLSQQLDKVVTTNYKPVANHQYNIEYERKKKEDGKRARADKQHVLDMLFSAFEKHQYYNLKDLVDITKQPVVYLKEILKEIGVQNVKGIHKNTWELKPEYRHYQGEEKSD
UniProt P11388: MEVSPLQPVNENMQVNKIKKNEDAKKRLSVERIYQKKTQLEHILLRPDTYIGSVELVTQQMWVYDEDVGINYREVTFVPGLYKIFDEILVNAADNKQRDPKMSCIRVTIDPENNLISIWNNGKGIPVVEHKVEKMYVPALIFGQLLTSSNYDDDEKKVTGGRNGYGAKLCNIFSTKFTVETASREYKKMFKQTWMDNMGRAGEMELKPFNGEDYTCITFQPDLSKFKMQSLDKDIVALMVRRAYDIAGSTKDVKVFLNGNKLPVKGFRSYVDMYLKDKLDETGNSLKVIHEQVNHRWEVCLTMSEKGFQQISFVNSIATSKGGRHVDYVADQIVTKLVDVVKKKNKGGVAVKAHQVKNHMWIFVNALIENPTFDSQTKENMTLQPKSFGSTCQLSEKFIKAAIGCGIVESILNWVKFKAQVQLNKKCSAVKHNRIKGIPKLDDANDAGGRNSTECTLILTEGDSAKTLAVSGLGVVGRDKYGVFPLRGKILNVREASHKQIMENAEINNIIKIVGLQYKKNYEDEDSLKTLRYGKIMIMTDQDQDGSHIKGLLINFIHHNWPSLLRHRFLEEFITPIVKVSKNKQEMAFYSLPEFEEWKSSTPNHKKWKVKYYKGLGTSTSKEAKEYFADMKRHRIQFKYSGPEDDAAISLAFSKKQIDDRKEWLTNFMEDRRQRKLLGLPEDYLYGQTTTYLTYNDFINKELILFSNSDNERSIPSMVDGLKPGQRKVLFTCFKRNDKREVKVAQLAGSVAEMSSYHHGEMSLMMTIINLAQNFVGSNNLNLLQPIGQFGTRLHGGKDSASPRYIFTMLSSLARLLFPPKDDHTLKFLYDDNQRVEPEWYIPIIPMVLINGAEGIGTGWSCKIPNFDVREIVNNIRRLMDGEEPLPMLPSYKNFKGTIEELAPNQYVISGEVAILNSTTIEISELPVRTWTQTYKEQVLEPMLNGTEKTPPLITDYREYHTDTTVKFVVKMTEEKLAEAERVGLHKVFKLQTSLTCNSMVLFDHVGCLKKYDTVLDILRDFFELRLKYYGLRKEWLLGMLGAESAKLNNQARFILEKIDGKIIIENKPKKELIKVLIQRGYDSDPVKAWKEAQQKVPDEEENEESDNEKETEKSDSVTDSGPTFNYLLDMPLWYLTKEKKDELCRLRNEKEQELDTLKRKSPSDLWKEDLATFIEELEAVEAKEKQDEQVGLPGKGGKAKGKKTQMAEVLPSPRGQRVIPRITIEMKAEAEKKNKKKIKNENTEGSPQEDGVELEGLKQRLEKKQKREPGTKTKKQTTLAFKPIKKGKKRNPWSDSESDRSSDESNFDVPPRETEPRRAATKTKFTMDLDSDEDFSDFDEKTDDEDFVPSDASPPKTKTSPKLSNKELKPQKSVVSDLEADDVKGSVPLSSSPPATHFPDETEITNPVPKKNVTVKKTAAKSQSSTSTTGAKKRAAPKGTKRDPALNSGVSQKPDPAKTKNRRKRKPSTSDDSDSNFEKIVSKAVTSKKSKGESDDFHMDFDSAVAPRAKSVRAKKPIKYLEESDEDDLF
UniProt P07311: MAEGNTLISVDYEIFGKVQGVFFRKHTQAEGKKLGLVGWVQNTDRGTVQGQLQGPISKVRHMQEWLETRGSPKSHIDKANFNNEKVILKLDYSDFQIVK
UniProt P07305, whole entry: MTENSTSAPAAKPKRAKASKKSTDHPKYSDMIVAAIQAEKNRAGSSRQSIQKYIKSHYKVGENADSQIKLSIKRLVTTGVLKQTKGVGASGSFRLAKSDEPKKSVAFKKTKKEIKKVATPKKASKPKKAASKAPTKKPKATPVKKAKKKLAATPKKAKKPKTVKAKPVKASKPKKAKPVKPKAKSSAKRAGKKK
UniProt P06396, whole entry: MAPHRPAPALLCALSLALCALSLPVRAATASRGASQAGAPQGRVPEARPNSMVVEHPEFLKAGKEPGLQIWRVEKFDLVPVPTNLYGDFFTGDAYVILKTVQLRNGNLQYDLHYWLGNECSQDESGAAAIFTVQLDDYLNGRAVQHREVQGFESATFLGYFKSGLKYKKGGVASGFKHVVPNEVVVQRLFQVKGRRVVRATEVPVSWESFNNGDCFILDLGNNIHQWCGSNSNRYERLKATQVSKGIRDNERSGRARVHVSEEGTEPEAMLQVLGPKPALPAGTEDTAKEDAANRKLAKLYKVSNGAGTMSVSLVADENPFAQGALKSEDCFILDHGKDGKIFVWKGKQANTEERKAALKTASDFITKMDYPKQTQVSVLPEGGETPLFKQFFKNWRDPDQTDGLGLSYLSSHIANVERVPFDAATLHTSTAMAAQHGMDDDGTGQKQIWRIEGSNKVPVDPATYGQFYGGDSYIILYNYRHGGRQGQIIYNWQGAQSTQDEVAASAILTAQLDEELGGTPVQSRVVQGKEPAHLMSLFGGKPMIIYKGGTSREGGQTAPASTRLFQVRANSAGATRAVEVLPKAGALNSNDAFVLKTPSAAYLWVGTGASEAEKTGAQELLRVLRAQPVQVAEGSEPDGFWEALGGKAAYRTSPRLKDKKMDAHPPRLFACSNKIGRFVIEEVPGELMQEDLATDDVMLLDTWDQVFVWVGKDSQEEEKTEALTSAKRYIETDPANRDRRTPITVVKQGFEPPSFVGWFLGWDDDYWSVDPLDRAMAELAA
UniProt P14324: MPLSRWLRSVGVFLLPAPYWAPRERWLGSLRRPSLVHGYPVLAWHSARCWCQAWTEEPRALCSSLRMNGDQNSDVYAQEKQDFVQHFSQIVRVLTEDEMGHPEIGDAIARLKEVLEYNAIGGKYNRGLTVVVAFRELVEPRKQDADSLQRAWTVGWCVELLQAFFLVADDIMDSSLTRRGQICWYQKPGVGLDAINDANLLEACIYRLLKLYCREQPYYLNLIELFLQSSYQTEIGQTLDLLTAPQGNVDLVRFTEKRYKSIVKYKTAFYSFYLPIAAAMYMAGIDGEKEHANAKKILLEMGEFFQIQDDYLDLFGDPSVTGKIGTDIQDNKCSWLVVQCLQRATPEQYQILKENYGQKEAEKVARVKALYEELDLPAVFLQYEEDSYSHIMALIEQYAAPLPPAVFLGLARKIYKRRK
UniProt P02792: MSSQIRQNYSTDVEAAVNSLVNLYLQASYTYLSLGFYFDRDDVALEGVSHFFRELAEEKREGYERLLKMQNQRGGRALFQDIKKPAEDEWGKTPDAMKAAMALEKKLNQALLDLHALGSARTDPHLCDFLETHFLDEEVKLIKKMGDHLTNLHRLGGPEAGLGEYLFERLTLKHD
UniProt P07737, whole entry: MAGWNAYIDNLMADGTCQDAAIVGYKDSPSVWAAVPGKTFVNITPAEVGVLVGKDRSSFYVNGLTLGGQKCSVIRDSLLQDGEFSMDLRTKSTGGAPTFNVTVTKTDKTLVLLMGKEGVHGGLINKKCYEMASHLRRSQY
UniProt O95817, whole entry: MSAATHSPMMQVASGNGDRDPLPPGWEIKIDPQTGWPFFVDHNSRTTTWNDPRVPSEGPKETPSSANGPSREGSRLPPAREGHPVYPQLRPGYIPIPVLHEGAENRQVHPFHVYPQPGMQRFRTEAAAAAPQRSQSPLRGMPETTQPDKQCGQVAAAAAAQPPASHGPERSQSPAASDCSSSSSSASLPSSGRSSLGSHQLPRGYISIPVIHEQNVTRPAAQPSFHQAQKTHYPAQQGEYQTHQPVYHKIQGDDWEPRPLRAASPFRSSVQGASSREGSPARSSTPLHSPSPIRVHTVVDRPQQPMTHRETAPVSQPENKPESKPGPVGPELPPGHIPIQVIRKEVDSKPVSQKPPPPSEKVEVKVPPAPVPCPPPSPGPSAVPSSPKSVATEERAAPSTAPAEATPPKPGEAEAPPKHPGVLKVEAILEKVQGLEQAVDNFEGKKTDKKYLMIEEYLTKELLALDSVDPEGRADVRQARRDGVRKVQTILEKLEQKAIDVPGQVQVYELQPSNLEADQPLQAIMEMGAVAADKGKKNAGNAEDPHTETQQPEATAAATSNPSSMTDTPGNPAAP
UniProt P12955: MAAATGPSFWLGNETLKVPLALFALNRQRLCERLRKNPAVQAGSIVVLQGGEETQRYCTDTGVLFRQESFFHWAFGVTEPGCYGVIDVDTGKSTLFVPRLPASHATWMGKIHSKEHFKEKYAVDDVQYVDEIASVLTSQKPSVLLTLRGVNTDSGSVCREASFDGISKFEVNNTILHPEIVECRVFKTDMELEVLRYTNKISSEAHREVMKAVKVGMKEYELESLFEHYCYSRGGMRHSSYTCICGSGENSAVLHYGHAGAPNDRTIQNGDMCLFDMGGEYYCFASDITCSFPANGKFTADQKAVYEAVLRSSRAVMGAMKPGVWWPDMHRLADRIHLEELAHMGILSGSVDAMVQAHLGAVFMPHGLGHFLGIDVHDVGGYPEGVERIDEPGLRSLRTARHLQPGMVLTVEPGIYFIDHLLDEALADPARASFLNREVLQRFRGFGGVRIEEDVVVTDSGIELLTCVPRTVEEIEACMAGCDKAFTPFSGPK
UniProt P0CG13, whole entry: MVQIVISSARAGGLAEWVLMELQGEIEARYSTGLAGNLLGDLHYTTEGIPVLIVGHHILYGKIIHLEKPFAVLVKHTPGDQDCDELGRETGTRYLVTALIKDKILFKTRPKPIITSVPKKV

Compound: Nc1ncnc2c1ncn2[C@@H]1O[C@H](COP(=O)(O)OP(=O)(O)NP(=O)(O)O)[C@@H](O)[C@H]1O [adenylyl imidodiphosphate]
Assay: NP40-soluble protein abundance relative to vehicle (solubility fold change) (ratio); higher = more soluble protein in presence of AMP-PNP
Outline: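 Across three independent experiments, values are fold changes against the detergent-processed vehicle for each replicate, based on vsn-normalised intensities. The samples were Jurkat crude lysate treated with eight concentrations (0.1 to 10 mM) for 10 min at room temperature and then 3 min at 37 °C. Lysate was solubilised with 0.8% NP40 and benzonase, ultracentrifuged, and the supernatant analysed by TMT-labelled LC-MS/MS.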

Target	NP40-soluble protein abundance (concentration: 1mM)	NP40-soluble protein abundance (concentration: 2mM)	NP40-soluble protein abundance (concentration: 4mM)	NP40-soluble protein abundance (concentration: 6mM)	NP40-soluble protein abundance (concentration: 8mM)	NP40-soluble protein abundance (concentration: 10mM)
RB1 (UniProt P06400)	1 ± 0.015	0.995 ± 0.014	1 ± 0.012	0.9931 ± 0.0029	0.9901 ± 0.0085	0.981 ± 0.014
AKR1B1 (UniProt P15121)	0.953 ± 0.046	0.867 ± 0.065	0.921 ± 0.038	0.999 ± 0.084	1.02 ± 0.046	0.946 ± 0.037
UniProt P15170-2|P15170-3|H3BSV8	0.993 ± 0.025	0.955 ± 0.035	0.96 ± 0.01	0.995 ± 0.012	0.964 ± 0.014	0.968 ± 0.043
UniProt P09960 and related entries	0.978 ± 0.029	0.879 ± 0.098	0.925 ± 0.024	0.954 ± 0.051	0.969 ± 0.026	0.909 ± 0.04
UniProt P05771 and related entries	1.05 ± 0.019	1.03 ± 0.016	1.04 ± 0.029	1.04 ± 0.012	1.05 ± 0.017	1.04 ± 0.03
UniProt P06753-2|P06753-3|P06753-5|P06753-6|J3KN67	1.14 ± 0.11	1.28 ± 0.2	1.19 ± 0.21	1.25 ± 0.23	1.21 ± 0.12	1.07 ± 0.14
UniProt P14151 and related entries	1.05 ± 0.011	1.14 ± 0.16	1.04 ± 0.041	1.06 ± 0.03	1.06 ± 0.032	1.07 ± 0.036
HIST1H1D (UniProt P16402)	1.04 ± 0.07	1.14 ± 0.12	1.13 ± 0.12	1.15 ± 0.051	1.2 ± 0.14	1.32 ± 0.015
GTF2F2 (UniProt P13984)	1 ± 0.011	1.06 ± 0.023	1.04 ± 0.019	1.07 ± 0.018	1.07 ± 0.015	1.103 ± 0.0083
GOT2 (UniProt P00505)	0.981 ± 0.02	0.909 ± 0.052	0.949 ± 0.015	1 ± 0.051	1.01 ± 0.043	0.984 ± 0.03
UniProt P00519 and related entries	1.03 ± 0.034	1.07 ± 0.023	1.07 ± 0.035	1.06 ± 0.056	1.06 ± 0.035	1.11 ± 0.027
RPS2 (UniProt P15880)	0.954 ± 0.052	0.881 ± 0.11	0.903 ± 0.088	0.906 ± 0.059	0.876 ± 0.04	0.882 ± 0.098
UniProt P15927 and related entries	0.987 ± 0.013	1.03 ± 0.035	0.988 ± 0.017	1.01 ± 0.015	0.983 ± 0.03	1.02 ± 0.017
CRYZL1 (UniProt O95825)	0.968 ± 0.017	0.927 ± 0.054	0.961 ± 0.031	0.951 ± 0.034	0.958 ± 0.049	0.953 ± 0.039
UniProt P11388 and related entries	1.66 ± 0.082	1.72 ± 0.05	1.82 ± 0.16	1.98 ± 0.14	2.04 ± 0.24	2.13 ± 0.27
P0DN76 and related entries (UniProt Q01081+P0DN76)	1.04 ± 0.065	1.06 ± 0.083	1.12 ± 0.05	1.29 ± 0.099	1.47 ± 0.18	1.51 ± 0.18
UniProt P16435 and related entries	1.02 ± 0.019	0.977 ± 0.068	1.01 ± 0.028	0.9816 ± 0.0051	1.002 ± 0.005	0.984 ± 0.022
PYGB (UniProt P11216)	1.06 ± 0.1	1.09 ± 0.15	1.35 ± 0.14	1.43 ± 0.17	1.54 ± 0.24	1.47 ± 0.24
UniProt P07311 and related entries	0.994 ± 0.064	1.01 ± 0.1	1.06 ± 0.099	1.2 ± 0.16	1.2 ± 0.085	1.26 ± 0.068
H1F0 (UniProt P07305)	1.05 ± 0.021	1.05 ± 0.021	1.03 ± 0.016	1.074 ± 0.0051	1.01 ± 0.021	1.0745 ± 0.00041

Target	NP40-soluble protein abundance (concentration: 1mM)	NP40-soluble protein abundance (concentration: 2mM)	NP40-soluble protein abundance (concentration: 4mM)	NP40-soluble protein abundance (concentration: 6mM)	NP40-soluble protein abundance (concentration: 8mM)	NP40-soluble protein abundance (concentration: 10mM)
Fyn (UniProt P06241)	0.993 ± 0.025	0.962 ± 0.013	0.97 ± 0.042	0.991 ± 0.045	1 ± 0.025	0.965 ± 0.029
PRKAR1A (UniProt P10644)	1.03 ± 0.052	1.01 ± 0.043	1.01 ± 0.044	0.984 ± 0.046	0.986 ± 0.043	0.994 ± 0.059
BPGM (UniProt P07738)	1.07 ± 0.13	0.992 ± 0.05	0.972 ± 0.048	0.995 ± 0.05	0.976 ± 0.03	0.955 ± 0.011
NRAS (UniProt P01111)	1.07 ± 0.062	1.08 ± 0.11	1.04 ± 0.08	0.977 ± 0.034	1.01 ± 0.043	0.975 ± 0.09
UniProt P06239 and related entries	1.05 ± 0.024	1.02 ± 0.11	1.05 ± 0.046	1 ± 0.035	0.996 ± 0.043	0.99 ± 0.065
IGLL1 (UniProt P15814)	0.995 ± 0.054	1.015 ± 0.01	1.03 ± 0.027	1 ± 0.02	1.02 ± 0.045	0.977 ± 0.02
UniProt O95786 and related entries	0.996 ± 0.051	0.944 ± 0.035	0.978 ± 0.022	0.942 ± 0.017	0.967 ± 0.021	0.933 ± 0.029
ACADS (UniProt P16219)	0.988 ± 0.035	0.924 ± 0.068	0.9786 ± 0.0077	0.974 ± 0.029	0.999 ± 0.016	0.945 ± 0.016
UniProt P05161 and related entries	0.991 ± 0.034	0.962 ± 0.028	0.984 ± 0.051	1.04 ± 0.094	1.07 ± 0.062	1.05 ± 0.058
UniProt O96019 and related entries	1.02 ± 0.069	1.01 ± 0.066	1.02 ± 0.054	1.01 ± 0.089	0.987 ± 0.066	0.974 ± 0.11
UniProt O96028 and related entries	1.08 ± 0.034	1.16 ± 0.026	1.23 ± 0.033	1.32 ± 0.044	1.35 ± 0.03	1.47 ± 0.059
SLC25A4 (UniProt P12235)	0.965 ± 0.02	0.922 ± 0.086	0.9657 ± 0.0077	0.978 ± 0.046	0.985 ± 0.04	0.996 ± 0.019
HIST1H1C (UniProt P16403)	1.02 ± 0.05	1.13 ± 0.042	1.07 ± 0.023	1.17 ± 0.06	1.2 ± 0.095	1.54 ± 0.15
LATS1 (UniProt O95835)	1.03 ± 0.041	1.01 ± 0.037	1.01 ± 0.032	1 ± 0.0023	1.03 ± 0.034	1.02 ± 0.036
UniProt P16930 and related entries	0.978 ± 0.039	0.891 ± 0.07	0.946 ± 0.01	0.965 ± 0.036	0.975 ± 0.021	0.932 ± 0.029
NCK1 (UniProt P16333)	0.991 ± 0.016	0.961 ± 0.038	1.06 ± 0.016	1.05 ± 0.047	1.02 ± 0.035	1.01 ± 0.035
IFNGR1 (UniProt P15260)	1.05 ± 0.023	1.04 ± 0.046	1.02 ± 0.042	1.03 ± 0.038	0.996 ± 0.017	1.01 ± 0.04
UniProt P01737	1.03 ± 0.026	1.11 ± 0.16	1.06 ± 0.083	1.08 ± 0.085	1.11 ± 0.039	1.16 ± 0.091
PDIA4 (UniProt P13667)	0.983 ± 0.013	1 ± 0.023	0.934 ± 0.017	0.972 ± 0.022	0.928 ± 0.022	0.936 ± 0.042
UniProt P15291 and related entries	0.983 ± 0.036	0.967 ± 0.044	0.966 ± 0.023	0.977 ± 0.0099	0.961 ± 0.031	0.977 ± 0.023

Part of the list above, with each value named.
PRKAR1A (UniProt P10644)
  NP40-soluble protein abundance (concentration: 1mM): 1.03 ± 0.052; NP40-soluble protein abundance (concentration: 2mM): 1.01 ± 0.043; NP40-soluble protein abundance (concentration: 4mM): 1.01 ± 0.044; NP40-soluble protein abundance (concentration: 6mM): 0.984 ± 0.046; NP40-soluble protein abundance (concentration: 8mM): 0.986 ± 0.043; NP40-soluble protein abundance (concentration: 10mM): 0.994 ± 0.059
UniProt P06239 and related entries
  NP40-soluble protein abundance (concentration: 1mM): 1.05 ± 0.024; NP40-soluble protein abundance (concentration: 2mM): 1.02 ± 0.11; NP40-soluble protein abundance (concentration: 4mM): 1.05 ± 0.046; NP40-soluble protein abundance (concentration: 6mM): 1 ± 0.035; NP40-soluble protein abundance (concentration: 8mM): 0.996 ± 0.043; NP40-soluble protein abundance (concentration: 10mM): 0.99 ± 0.065
IGLL1 (UniProt P15814)
  NP40-soluble protein abundance (concentration: 1mM): 0.995 ± 0.054; NP40-soluble protein abundance (concentration: 2mM): 1.015 ± 0.01; NP40-soluble protein abundance (concentration: 4mM): 1.03 ± 0.027; NP40-soluble protein abundance (concentration: 6mM): 1 ± 0.02; NP40-soluble protein abundance (concentration: 8mM): 1.02 ± 0.045; NP40-soluble protein abundance (concentration: 10mM): 0.977 ± 0.02
NCK1 (UniProt P16333)
  NP40-soluble protein abundance (concentration: 1mM): 0.991 ± 0.016; NP40-soluble protein abundance (concentration: 2mM): 0.961 ± 0.038; NP40-soluble protein abundance (concentration: 4mM): 1.06 ± 0.016; NP40-soluble protein abundance (concentration: 6mM): 1.05 ± 0.047; NP40-soluble protein abundance (concentration: 8mM): 1.02 ± 0.035; NP40-soluble protein abundance (concentration: 10mM): 1.01 ± 0.035

(continued)

Target	NP40-soluble protein abundance (concentration: 1mM)	NP40-soluble protein abundance (concentration: 2mM)	NP40-soluble protein abundance (concentration: 4mM)	NP40-soluble protein abundance (concentration: 6mM)	NP40-soluble protein abundance (concentration: 8mM)	NP40-soluble protein abundance (concentration: 10mM)
DDAH2 (UniProt O95865)	1 ± 0.045	0.995 ± 0.033	0.995 ± 0.064	1.02 ± 0.057	1.04 ± 0.063	0.997 ± 0.066
UniProt P06396-2	1.05 ± 0.03	1.07 ± 0.045	1.0378 ± 0.00018	1.04 ± 0.041	1.0267 ± 0.00077	1.07 ± 0.062
H2AFX (UniProt P16104)	0.925 ± 0.044	0.984 ± 0.041	0.922 ± 0.033	1.03 ± 0.047	0.997 ± 0.13	1.21 ± 0.075
HIST1H1E (UniProt P10412)	1.04 ± 0.06	1.15 ± 0.09	1.12 ± 0.05	1.25 ± 0.15	1.24 ± 0.23	1.56 ± 0.14
UniProt P14324 and related entries	0.968 ± 0.027	0.895 ± 0.038	0.907 ± 0.033	0.978 ± 0.053	0.992 ± 0.035	0.937 ± 0.036
ZBED1 (UniProt O96006)	1.03 ± 0.013	1 ± 0.012	0.985 ± 0.024	0.981 ± 0.016	0.962 ± 0.037	0.975 ± 0.023
CAPN1 (UniProt P07384)	0.976 ± 0.015	0.904 ± 0.095	0.968 ± 0.025	0.96 ± 0.019	0.978 ± 0.023	0.932 ± 0.034
UniProt P11274 and related entries	1.01 ± 0.011	0.986 ± 0.028	1.01 ± 0.017	0.974 ± 0.027	0.981 ± 0.022	0.956 ± 0.018
UniProt P13929 and related entries	1 ± 0.041	0.9809 ± 0.0084	1.01 ± 0.076	1.06 ± 0.064	1.05 ± 0.041	1.05 ± 0.033
UniProt P09497-2	0.99 ± 0.052	0.954 ± 0.082	0.904 ± 0.039	0.843 ± 0.046	0.816 ± 0.011	0.823 ± 0.05
DARS (UniProt P14868)	0.954 ± 0.034	0.9 ± 0.1	0.934 ± 0.077	0.942 ± 0.061	0.954 ± 0.09	0.936 ± 0.12
FTL (UniProt P02792)	0.963 ± 0.081	1.02 ± 0.073	0.949 ± 0.018	0.844 ± 0.11	0.847 ± 0.09	0.827 ± 0.11
PFN1 (UniProt P07737)	1.06 ± 0.042	1.12 ± 0.15	1.06 ± 0.018	1.08 ± 0.11	1.12 ± 0.026	1.15 ± 0.047
BAG3 (UniProt O95817)	0.974 ± 0.032	0.987 ± 0.039	0.953 ± 0.018	0.983 ± 0.012	0.961 ± 0.044	0.934 ± 0.029
COX5B (UniProt P10606)	1.01 ± 0.017	1.06 ± 0.079	1.01 ± 0.02	0.959 ± 0.017	0.954 ± 0.043	0.981 ± 0.023
UniProt P12955 and related entries	0.991 ± 0.025	0.934 ± 0.097	0.972 ± 0.044	0.944 ± 0.027	0.961 ± 0.038	0.916 ± 0.025
TTC4 (UniProt O95801)	1.02 ± 0.033	1.02 ± 0.015	0.9819 ± 0.0095	0.979 ± 0.015	0.949 ± 0.025	0.973 ± 0.027
P0CG12 and related entries (UniProt P0CG13)	0.9562 ± 0.0082	0.9635 ± 0.0031	0.976 ± 0.033	1.04 ± 0.066	1.02 ± 0.069	0.9954 ± 0.0088
UniProt P09525 and related entries	0.97 ± 0.046	0.94 ± 0.022	0.987 ± 0.018	1.02 ± 0.081	1.05 ± 0.036	1 ± 0.029
UniProt P09564	1.08 ± 0.07	1.1 ± 0.074	1.1 ± 0.091	1.05 ± 0.04	1.07 ± 0.076	1.06 ± 0.071
